Bridge positions count the residues as written; N and C are the ends. Square brackets hold non-standard residues; d marks the D form. * marks the point of attachment. Decanoyl = CCCCCCCCCC(=O)*; Orn = NCCC[C@H](N)C(=O)O; Dap = NC[C@H](N)C(=O)O; Butyryl = CCCC(=O)*; Bz = O=C(c1ccccc1)*
Assay: general procedure: Fmoc solid-phase peptide synthesis; Rink Amide MBHA resin (0.58 mmol/g or 0.78 mmol/g); Wang resin for C-terminal acids; DIC/HOBt
Conditions: whole synthesis; for purity (crude or final not stated) / final HPLC purity: analytical HPLC; for purity (crude or final not stated): scale of the general procedure 0.090 mmol; for final HPLC purity / isolated mass / isolated yield: scale 0.090 mmol

Substance	purity (crude or final not stated)	further results
Ac-[Dap]KWIQD-NH2 (lactam 1-6; SMILES CC[C@H](C)[C@@H]1NC(=O)[C@H](Cc2c[nH]c3ccccc23)NC(=O)[C@H](CCCCN)NC(=O)[C@@H](NC(C)=O)CNC(=O)C[C@@H](C(N)=O)NC(=O)[C@H](CCC(N)=O)NC1=O)	94.8%	–
Ac-[Dap]KWIQE-NH2 (lactam 1-6; SMILES CC[C@H](C)[C@@H]1NC(=O)[C@H](Cc2c[nH]c3ccccc23)NC(=O)[C@H](CCCCN)NC(=O)[C@@H](NC(C)=O)CNC(=O)CC[C@@H](C(N)=O)NC(=O)[C@H](CCC(N)=O)NC1=O)	96.4%	–
Ac-[Orn]KWIQD-NH2 (lactam 1-6; SMILES CC[C@H](C)[C@@H]1NC(=O)[C@H](Cc2c[nH]c3ccccc23)NC(=O)[C@H](CCCCN)NC(=O)[C@@H](NC(C)=O)CCCNC(=O)C[C@@H](C(N)=O)NC(=O)[C@H](CCC(N)=O)NC1=O)	97.4%	–
Ac-[Orn]KWIQE-NH2 (lactam 1-6; SMILES CC[C@H](C)[C@@H]1NC(=O)[C@H](Cc2c[nH]c3ccccc23)NC(=O)[C@H](CCCCN)NC(=O)[C@@H](NC(C)=O)CCCNC(=O)CC[C@@H](C(N)=O)NC(=O)[C@H](CCC(N)=O)NC1=O)	96.2%	–
Ac-[dC]KWIQC-NH2 (disulfide 1-6; SMILES CC[C@H](C)[C@@H]1NC(=O)[C@H](Cc2c[nH]c3ccccc23)NC(=O)[C@H](CCCCN)NC(=O)[C@H](NC(C)=O)CSSC[C@@H](C(N)=O)NC(=O)[C@H](CCC(N)=O)NC1=O)	99%	–
Ac-[dC][dQ][dI][dW][dK][dC]-NH2 (disulfide 1-6; SMILES CC[C@@H](C)[C@H]1NC(=O)[C@@H](CCC(N)=O)NC(=O)[C@H](NC(C)=O)CSSC[C@H](C(N)=O)NC(=O)[C@@H](CCCCN)NC(=O)[C@@H](Cc2c[nH]c3ccccc23)NC1=O)	92.3%	–
Ac-[dC][dQ][dI][dW][dK][dQ][dK][dP][dD][dL][dC]-NH2 (disulfide 1-11; SMILES CC[C@@H](C)[C@H]1NC(=O)[C@@H](CCC(N)=O)NC(=O)[C@H](NC(C)=O)CSSC[C@H](C(N)=O)NC(=O)[C@@H](CC(C)C)NC(=O)[C@@H](CC(=O)O)NC(=O)[C@H]2CCCN2C(=O)[C@@H](CCCCN)NC(=O)[C@@H](CCC(N)=O)NC(=O)[C@@H](CCCCN)NC(=O)[C@@H](Cc2c[nH]c3ccccc23)NC1=O)	99%	–
Ac-[dQ]CKWIQC-NH2 (disulfide 2-7; SMILES CC[C@H](C)[C@@H]1NC(=O)[C@H](Cc2c[nH]c3ccccc23)NC(=O)[C@H](CCCCN)NC(=O)[C@@H](NC(=O)[C@@H](CCC(N)=O)NC(C)=O)CSSC[C@@H](C(N)=O)NC(=O)[C@H](CCC(N)=O)NC1=O)	–	final HPLC purity: 91.3%; isolated mass: 31.5 mg; isolated yield: yield=37%
Butyryl-CKWIQC-NH2 (disulfide 1-6; SMILES CCCC(=O)N[C@H]1CSSC[C@@H](C(N)=O)NC(=O)[C@H](CCC(N)=O)NC(=O)[C@H]([C@@H](C)CC)NC(=O)[C@H](Cc2c[nH]c3ccccc23)NC(=O)[C@H](CCCCN)NC1=O)	88.1%	–
Butyryl-[dC][dQ][dI][dW][dK][dC]-NH2 (disulfide 1-6; SMILES CCCC(=O)N[C@@H]1CSSC[C@H](C(N)=O)NC(=O)[C@@H](CCCCN)NC(=O)[C@@H](Cc2c[nH]c3ccccc23)NC(=O)[C@@H]([C@H](C)CC)NC(=O)[C@@H](CCC(N)=O)NC1=O)	95.5%	–
Butyryl-[dC][dQ][dV][dW][dK][dC]-NH2 (disulfide 1-6; SMILES CCCC(=O)N[C@@H]1CSSC[C@H](C(N)=O)NC(=O)[C@@H](CCCCN)NC(=O)[C@@H](Cc2c[nH]c3ccccc23)NC(=O)[C@@H](C(C)C)NC(=O)[C@@H](CCC(N)=O)NC1=O)	93%	–
Bz-CKWIQC-NH2 (disulfide 1-6; SMILES CC[C@H](C)[C@@H]1NC(=O)[C@H](Cc2c[nH]c3ccccc23)NC(=O)[C@H](CCCCN)NC(=O)[C@@H](NC(=O)c2ccccc2)CSSC[C@@H](C(N)=O)NC(=O)[C@H](CCC(N)=O)NC1=O)	88.3%	–
Bz-[dC][dQ][dI][dW][dK][dC]-NH2 (disulfide 1-6; SMILES CC[C@@H](C)[C@H]1NC(=O)[C@@H](CCC(N)=O)NC(=O)[C@H](NC(=O)c2ccccc2)CSSC[C@H](C(N)=O)NC(=O)[C@@H](CCCCN)NC(=O)[C@@H](Cc2c[nH]c3ccccc23)NC1=O)	91.2%	–
Decanoyl-CKWIQC-NH2 (disulfide 1-6; SMILES CCCCCCCCCC(=O)N[C@H]1CSSC[C@@H](C(N)=O)NC(=O)[C@H](CCC(N)=O)NC(=O)[C@H]([C@@H](C)CC)NC(=O)[C@H](Cc2c[nH]c3ccccc23)NC(=O)[C@H](CCCCN)NC1=O)	94%	–
GKWIQD-NH2 (lactam N-6; SMILES CC[C@H](C)[C@@H]1NC(=O)[C@H](Cc2c[nH]c3ccccc23)NC(=O)[C@H](CCCCN)NC(=O)CNC(=O)C[C@@H](C(N)=O)NC(=O)[C@H](CCC(N)=O)NC1=O)	90.8%	–
GKWIQE-NH2 (lactam N-6; SMILES CC[C@H](C)[C@@H]1NC(=O)[C@H](Cc2c[nH]c3ccccc23)NC(=O)[C@H](CCCCN)NC(=O)CNC(=O)CC[C@@H](C(N)=O)NC(=O)[C@H](CCC(N)=O)NC1=O)	98.3%	–
H-CDPKQKWIQC-NH2 (disulfide 1-10; SMILES CC[C@H](C)[C@@H]1NC(=O)[C@H](Cc2c[nH]c3ccccc23)NC(=O)[C@H](CCCCN)NC(=O)[C@H](CCC(N)=O)NC(=O)[C@H](CCCCN)NC(=O)[C@@H]2CCCN2C(=O)[C@H](CC(=O)O)NC(=O)[C@@H](N)CSSC[C@@H](C(N)=O)NC(=O)[C@H](CCC(N)=O)NC1=O)	96.6%	–
H-CKQKWIQC-NH2 (disulfide 1-8; SMILES CC[C@H](C)[C@@H]1NC(=O)[C@H](Cc2c[nH]c3ccccc23)NC(=O)[C@H](CCCCN)NC(=O)[C@H](CCC(N)=O)NC(=O)[C@H](CCCCN)NC(=O)[C@@H](N)CSSC[C@@H](C(N)=O)NC(=O)[C@H](CCC(N)=O)NC1=O)	98%	–
H-CKWIQC-NH2 (disulfide 1-6; SMILES CC[C@H](C)[C@@H]1NC(=O)[C@H](Cc2c[nH]c3ccccc23)NC(=O)[C@H](CCCCN)NC(=O)[C@@H](N)CSSC[C@@H](C(N)=O)NC(=O)[C@H](CCC(N)=O)NC1=O)	–	final HPLC purity: 95.4%; isolated mass: 31.5 mg; isolated yield: 45% yield
H-CLDPKQKWIQC-NH2 (disulfide 1-11; SMILES CC[C@H](C)[C@@H]1NC(=O)[C@H](Cc2c[nH]c3ccccc23)NC(=O)[C@H](CCCCN)NC(=O)[C@H](CCC(N)=O)NC(=O)[C@H](CCCCN)NC(=O)[C@@H]2CCCN2C(=O)[C@H](CC(=O)O)NC(=O)[C@H](CC(C)C)NC(=O)[C@@H](N)CSSC[C@@H](C(N)=O)NC(=O)[C@H](CCC(N)=O)NC1=O)	98%	–
H-CLDPKQKWIQ[dC]-NH2 (disulfide 1-11; SMILES CC[C@H](C)[C@@H]1NC(=O)[C@H](Cc2c[nH]c3ccccc23)NC(=O)[C@H](CCCCN)NC(=O)[C@H](CCC(N)=O)NC(=O)[C@H](CCCCN)NC(=O)[C@@H]2CCCN2C(=O)[C@H](CC(=O)O)NC(=O)[C@H](CC(C)C)NC(=O)[C@@H](N)CSSC[C@H](C(N)=O)NC(=O)[C@H](CCC(N)=O)NC1=O)	86.2%	–

From patent US20110038885A1 (priority 2007, published 2011)
